The target of this assay is TGME49_289120^myc (Toxoplasma gondii (endogenous in RH tachyzoites)) (UniProt S8F360). Kind of assay: co-IP; myc-tagged bait (TgCOPI-δ^myc, TgSec31^myc or Tg289120^myc) isolated on α-Myc magnetic beads from parasites co-expressing endogenous TgCog3^AID-HA or TgCog7^AID-HA; western blot with α-HA and α-myc; extraction in PBS with 263 mM NaCl, 1% Triton X-100.

Amino acid sequences for entries named in this document (tags omitted).
UniProt S8F360: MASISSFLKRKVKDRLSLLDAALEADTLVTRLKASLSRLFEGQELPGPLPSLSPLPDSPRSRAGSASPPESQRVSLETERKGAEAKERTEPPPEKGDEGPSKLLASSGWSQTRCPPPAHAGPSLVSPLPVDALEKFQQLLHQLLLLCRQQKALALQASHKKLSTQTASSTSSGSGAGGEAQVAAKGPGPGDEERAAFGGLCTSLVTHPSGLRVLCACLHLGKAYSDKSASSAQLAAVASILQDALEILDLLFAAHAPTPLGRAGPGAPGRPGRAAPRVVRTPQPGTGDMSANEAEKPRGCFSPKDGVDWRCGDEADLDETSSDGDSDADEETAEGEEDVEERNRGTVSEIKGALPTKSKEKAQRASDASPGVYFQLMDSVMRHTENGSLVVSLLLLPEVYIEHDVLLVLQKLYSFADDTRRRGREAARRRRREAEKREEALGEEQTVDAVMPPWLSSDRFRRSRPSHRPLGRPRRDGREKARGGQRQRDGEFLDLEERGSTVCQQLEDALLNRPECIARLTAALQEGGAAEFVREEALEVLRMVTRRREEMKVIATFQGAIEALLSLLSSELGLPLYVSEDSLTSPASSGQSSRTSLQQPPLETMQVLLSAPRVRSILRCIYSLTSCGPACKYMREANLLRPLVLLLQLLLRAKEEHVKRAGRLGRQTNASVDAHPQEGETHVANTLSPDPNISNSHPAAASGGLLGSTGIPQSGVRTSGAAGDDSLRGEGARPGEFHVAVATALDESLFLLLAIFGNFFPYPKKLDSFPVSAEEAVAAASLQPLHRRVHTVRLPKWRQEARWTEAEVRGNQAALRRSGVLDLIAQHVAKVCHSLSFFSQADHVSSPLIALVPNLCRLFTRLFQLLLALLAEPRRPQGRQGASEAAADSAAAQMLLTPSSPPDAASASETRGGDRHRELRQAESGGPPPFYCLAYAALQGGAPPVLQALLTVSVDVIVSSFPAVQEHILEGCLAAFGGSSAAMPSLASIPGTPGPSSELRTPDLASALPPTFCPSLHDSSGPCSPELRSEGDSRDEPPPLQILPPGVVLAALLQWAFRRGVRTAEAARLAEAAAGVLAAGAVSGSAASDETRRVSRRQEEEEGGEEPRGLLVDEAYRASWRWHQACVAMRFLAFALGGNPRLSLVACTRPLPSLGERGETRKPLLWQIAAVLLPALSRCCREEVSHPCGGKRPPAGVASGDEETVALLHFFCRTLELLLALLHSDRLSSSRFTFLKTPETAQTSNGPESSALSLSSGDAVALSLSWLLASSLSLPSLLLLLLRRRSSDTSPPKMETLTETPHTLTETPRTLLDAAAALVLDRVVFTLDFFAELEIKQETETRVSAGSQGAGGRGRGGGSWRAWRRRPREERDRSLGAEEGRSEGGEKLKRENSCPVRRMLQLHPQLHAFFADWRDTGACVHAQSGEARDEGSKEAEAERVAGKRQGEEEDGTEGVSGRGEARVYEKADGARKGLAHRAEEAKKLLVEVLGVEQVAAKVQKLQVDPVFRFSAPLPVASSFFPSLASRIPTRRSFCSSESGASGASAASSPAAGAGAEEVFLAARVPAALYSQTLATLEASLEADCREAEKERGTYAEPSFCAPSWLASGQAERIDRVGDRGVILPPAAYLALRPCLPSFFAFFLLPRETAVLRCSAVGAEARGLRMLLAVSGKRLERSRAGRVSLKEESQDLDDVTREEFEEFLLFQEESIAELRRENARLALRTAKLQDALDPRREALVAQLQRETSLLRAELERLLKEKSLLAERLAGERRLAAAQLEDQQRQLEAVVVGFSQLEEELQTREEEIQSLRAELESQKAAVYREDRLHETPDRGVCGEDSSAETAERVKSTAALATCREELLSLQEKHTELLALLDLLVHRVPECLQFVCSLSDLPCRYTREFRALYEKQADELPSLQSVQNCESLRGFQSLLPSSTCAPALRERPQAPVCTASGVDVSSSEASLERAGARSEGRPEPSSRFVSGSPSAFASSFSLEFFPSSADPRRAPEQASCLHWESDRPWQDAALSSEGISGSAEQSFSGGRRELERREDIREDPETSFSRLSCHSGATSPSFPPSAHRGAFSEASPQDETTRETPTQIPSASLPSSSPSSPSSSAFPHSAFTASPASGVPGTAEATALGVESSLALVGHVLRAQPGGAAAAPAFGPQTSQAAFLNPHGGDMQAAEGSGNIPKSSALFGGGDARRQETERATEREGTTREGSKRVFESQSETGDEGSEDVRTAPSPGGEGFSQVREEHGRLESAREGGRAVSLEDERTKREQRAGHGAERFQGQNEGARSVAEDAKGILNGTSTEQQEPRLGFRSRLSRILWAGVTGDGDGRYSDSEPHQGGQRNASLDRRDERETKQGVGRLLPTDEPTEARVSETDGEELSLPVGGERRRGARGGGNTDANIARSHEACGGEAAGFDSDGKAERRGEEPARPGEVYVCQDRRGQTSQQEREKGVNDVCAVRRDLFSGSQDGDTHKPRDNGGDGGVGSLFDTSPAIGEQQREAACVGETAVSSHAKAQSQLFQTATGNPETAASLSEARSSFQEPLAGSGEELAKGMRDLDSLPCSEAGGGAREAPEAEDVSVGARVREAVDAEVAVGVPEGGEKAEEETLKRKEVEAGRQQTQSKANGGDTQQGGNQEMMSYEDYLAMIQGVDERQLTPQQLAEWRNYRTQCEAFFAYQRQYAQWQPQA

Drawing on article PMC10746232, this text covers binding for one molecule.

Results are given in words; binding and its absence hold for the method and conditions named. Binding seen in cells or lysates may run through a third protein. Some results given as binding are weak or reduced against the parent protein; the word gives no strength. Tags and fused reporters may be left off the sequences shown.

B1: TgCog7^AID-HA (protein, UniProt S8FAE0 1-1223)
chain: MASPVPKPPEGALPGSPLPSSNSSSSASLQSSAVSAAFNALSAPTFSAGAWLDACIERSLEQQAFEAPPVASSSLASSPETETARLADRLESTLESVLAEVQRRIATTFEALDTKSQDLSSAAPTYVKQVEELSGKLVDARRTVDDALKALSCVDFEHQESLRRLAALDALRRHFHRCRRVLLVLHQWDFRVGEIELLLHSFQHQETPLIANPASSVDGTPFHPHQPSQGQGLSDDADASTFSSSSFSSSASSASSASSASSSSSSSAFEHAASTARLRSLAQAAMHAAALKNAVQELKAFGEFSARVRAAELLEKRVVVVTRSLMRSAFLSGDAESLRVAMNISVTLNHSAQLQQELSKCFGDQLRQAWLATWARTPAGRRRREAEVAAGACWALAPNERLHGERELYAEEQGDGFPREEADACGDDASVEKEQRTIGEPEALLLYFEEFTRLLEERSSLLRLFADELSQAEIRALRASSDDASSTSSCSSAAHSASSSSRSADPQGPFGCGRRGEEETSGVAGAASQAPHRPLRLHRTASRLHTRVWEETLLLCLKVGGEAPNAEVEAFLAAGGADLEEDDEERMARIEKLLQTYDMGFTLLSATPVVAESEPHIPQLWRKISSTCLFFPALLLRQFNAALWKSSRRFFLQDAPSVRPFDKRQAPSQVVMELEGRLDRTLQRLSSPALAALSPGAFHLCLAPCLLSAVDDAVAEFLSSLSPVLQTFAHTIQYKTQSIQDTQNRERERDLPARGNAGDFLPLDVLPTSLPFDLSLLNACMQQYLLFASAQQKLAQGAAVVFDEALTGHRRHSRFNVYLRELTNLHPDLLVYPSPSAVAHSASLLPSSCSSSFSAPPLPSVLPASFAAYTKLRHASRALVLLACSAPCSLFLHRFYPLCWGAISVSSSAQRAESLLREQRESINGQESKAILPSSVSTAAGEFFLQLLPHLEVAAAGAKGSEKRETEVESSDESLIAGLLSVVFTSFCRALLVADLPTRLTKEEPVQRGELRENMLLQLQADARYLASLSRSLGYDPEEESSFLFFETESGEGSEKARDAQADKQDQQTKDEERESSDLGETKKEEKDEAVRQERKRGPTWMIGLLLRGLDALLGTAEGETSAEPSAAKREEIKNNADENSSSLGCLGAFEAHLRRKFAREKNETKGESPSDSERVRAARAVAAAALESPSSDLCKSEKEKEDEEVTLVWAVLCQLGVFPSPL
As to B1, the binding result was “binds”.
